Experimental data taken from publication PMC4287497, “Phosphorylation of Elp1 by Hrr25 Is Required for Elongator-Dependent tRNA Modification in Yeast” (PLoS Genetics, 2015).
Positions count from the first letter of the chain named. Names and notes keep the numbering of the source. These are yes or no findings as the source states them, for the method shown. For some of these results: Binding seen in cells or lysates may run through a third protein. Some binding calls cover weakened binding; strength is not graded here. For some of these results: Tags and fused reporters may be left off the sequences shown.

T1: Elp3-TAP (S. cerevisiae) (UniProt Q02908)
T1 sequence: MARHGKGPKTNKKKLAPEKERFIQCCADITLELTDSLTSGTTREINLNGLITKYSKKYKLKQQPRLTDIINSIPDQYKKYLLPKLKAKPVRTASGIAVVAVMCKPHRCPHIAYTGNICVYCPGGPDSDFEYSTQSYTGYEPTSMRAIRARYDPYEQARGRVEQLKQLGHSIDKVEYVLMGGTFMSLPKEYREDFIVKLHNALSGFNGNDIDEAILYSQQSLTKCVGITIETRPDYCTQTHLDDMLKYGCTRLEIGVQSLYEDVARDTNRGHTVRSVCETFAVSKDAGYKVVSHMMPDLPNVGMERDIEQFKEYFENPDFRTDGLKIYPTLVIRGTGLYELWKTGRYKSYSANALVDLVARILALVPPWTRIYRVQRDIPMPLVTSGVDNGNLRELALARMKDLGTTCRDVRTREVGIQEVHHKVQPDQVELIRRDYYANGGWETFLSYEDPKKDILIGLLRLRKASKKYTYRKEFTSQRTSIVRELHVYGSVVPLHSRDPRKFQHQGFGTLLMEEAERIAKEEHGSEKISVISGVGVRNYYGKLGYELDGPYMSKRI

T2: Elp2-myc3 (S. cerevisiae) (UniProt P42935)
T2 sequence: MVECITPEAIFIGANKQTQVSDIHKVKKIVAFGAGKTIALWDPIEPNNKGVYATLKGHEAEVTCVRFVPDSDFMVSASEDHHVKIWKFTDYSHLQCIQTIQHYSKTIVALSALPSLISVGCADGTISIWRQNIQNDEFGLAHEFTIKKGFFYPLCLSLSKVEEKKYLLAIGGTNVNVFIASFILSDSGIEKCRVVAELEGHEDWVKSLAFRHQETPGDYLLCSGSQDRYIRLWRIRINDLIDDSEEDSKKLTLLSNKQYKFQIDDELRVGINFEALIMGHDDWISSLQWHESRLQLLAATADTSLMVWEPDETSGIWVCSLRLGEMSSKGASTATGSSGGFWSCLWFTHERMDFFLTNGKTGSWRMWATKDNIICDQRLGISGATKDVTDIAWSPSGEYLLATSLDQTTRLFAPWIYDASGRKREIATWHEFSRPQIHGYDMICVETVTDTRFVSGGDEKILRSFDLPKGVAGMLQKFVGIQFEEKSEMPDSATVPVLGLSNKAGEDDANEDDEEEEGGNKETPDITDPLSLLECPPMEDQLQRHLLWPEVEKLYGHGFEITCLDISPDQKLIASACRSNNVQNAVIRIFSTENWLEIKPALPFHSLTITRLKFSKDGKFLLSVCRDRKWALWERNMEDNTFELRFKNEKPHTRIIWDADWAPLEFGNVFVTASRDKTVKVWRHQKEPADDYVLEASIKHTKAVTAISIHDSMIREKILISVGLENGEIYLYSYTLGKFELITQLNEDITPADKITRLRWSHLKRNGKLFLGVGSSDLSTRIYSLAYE

T3: Elp1-HA (S7 Fig) (S. cerevisiae) (UniProt Q06706)
T3 sequence: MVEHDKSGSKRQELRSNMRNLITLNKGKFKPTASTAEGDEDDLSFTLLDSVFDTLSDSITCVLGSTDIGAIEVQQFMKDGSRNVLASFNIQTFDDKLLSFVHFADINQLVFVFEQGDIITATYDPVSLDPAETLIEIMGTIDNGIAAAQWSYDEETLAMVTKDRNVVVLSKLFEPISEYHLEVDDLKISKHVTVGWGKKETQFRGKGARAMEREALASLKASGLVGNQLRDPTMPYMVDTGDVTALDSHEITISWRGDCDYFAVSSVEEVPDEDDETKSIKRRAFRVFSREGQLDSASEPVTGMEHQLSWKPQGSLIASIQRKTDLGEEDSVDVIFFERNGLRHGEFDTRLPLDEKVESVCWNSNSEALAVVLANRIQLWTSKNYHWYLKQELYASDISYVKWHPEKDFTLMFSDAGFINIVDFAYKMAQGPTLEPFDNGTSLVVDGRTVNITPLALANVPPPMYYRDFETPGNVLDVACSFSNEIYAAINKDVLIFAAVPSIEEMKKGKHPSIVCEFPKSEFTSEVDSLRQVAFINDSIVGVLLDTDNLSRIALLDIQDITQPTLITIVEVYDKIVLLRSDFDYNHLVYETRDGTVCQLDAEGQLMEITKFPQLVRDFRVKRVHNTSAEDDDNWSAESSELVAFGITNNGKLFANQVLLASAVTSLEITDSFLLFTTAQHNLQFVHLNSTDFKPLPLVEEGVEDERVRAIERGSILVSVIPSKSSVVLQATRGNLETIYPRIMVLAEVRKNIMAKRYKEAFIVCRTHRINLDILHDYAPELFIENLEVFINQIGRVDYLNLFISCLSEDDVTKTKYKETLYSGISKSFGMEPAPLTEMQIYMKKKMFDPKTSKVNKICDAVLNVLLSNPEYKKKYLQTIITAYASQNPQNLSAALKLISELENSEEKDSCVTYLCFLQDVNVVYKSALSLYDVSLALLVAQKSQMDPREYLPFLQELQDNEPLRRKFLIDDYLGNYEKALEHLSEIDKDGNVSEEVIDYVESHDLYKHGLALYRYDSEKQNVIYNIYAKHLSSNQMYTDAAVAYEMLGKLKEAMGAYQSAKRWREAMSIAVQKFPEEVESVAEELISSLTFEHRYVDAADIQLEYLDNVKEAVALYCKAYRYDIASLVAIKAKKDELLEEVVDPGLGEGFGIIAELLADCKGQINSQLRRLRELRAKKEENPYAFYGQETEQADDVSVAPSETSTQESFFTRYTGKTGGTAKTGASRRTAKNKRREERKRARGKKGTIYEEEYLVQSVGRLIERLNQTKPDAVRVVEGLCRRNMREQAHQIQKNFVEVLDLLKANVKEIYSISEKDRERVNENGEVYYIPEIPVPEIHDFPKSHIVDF

B1: Elp1-6HA (wild-type, from YCplac111-ELP1-6HA) (protein, UniProt Q06706 1-1349)
chain: T3 sequence
B2: Elp3-HA (protein, UniProt Q02908 1-557)
chain: T1 sequence
B3: Kti12-myc (S7 Fig) (protein, UniProt P34253 1-313)
chain: MPLVLFTGYPCSGKTTLAKHLVQLLQSKIDATPSLSKYSITYHSDESLGIKHSDYITSQDERKLRSEIISAVKRDLSKNKIVIVDSLNYIKGFRYQLHCEVKNLSTTFCVIQTLCPPETIFEWNKTSNPNPWEPELLNQLIQRYEEPNSSNRWDSPLFAILTPQDNITDYIDDICKVVFQTSKSAKNSGHNDPLSKGLQKPNSATVLKPASQSNFIQVLDIETSKIIKTIMNHIKSLTSIGGVSNGTRVIVSEGITDINDDGCFFVDLPIGNVVTLAQLQRLKRQFINFNKLRDIDQDRIGPLFADYLNKNLN
B4: Elp1-S1198A S1202A-6HA (protein, UniProt Q06706 1-1349)
chain: T3 sequence with S1198A, S1202A
B5: Elp1-S1198E S1202E-6HA (protein, UniProt Q06706 1-1349)
chain: T3 sequence with S1198E, S1202E
B6: Elp1-S1209A-6HA (protein, UniProt Q06706 1-1349)
chain: T3 sequence with S1209A
B7: Elp5-HA (protein, UniProt P38874 1-309)
chain: MASSSHNPVILLKRILSLTESSPFILCLDSIAQTSYKLIQEFVHQSKSKGNEYPIVYISFETVNKPSYCTQFIDATQMDFVHLVKQIISYLPAATATQAKKHMVIIDSLNYISTEYITRFLSEIASPHCTMVATYHKDIKDENRTVIPDWNNNYPDKLTLLQFMATTIVDIDVVLTGTLDTEEVSELLNEFRIPRGLNNDIFQLRLVNKRKSGRSLEYDFIVNSNTHEYELLSTTKQEEESSSNGLETPEMLQGLTTFNLGTSNKQKLAKDQVALPFLEAQSFGQGGAIVYEYEKDDDYDEEDPYEDPF
B8: Elp1-S1209D-6HA (protein, UniProt Q06706 1-1349)
chain: T3 sequence with S1209D
B9: Elp1-S1198A S1202A T1204A S1205A T1206A-6HA (protein, UniProt Q06706 1-1349)
chain: T3 sequence with S1198A, S1202A, T1204A, S1205A, T1206A

Assays:
Elp3-TAP (S. cerevisiae) = target: T1, Elp3-TAP (S. cerevisiae); experiment: tandem affinity purification with Western blot; Elongator purified by Elp3-TAP from elp1Δ ELP3-TAP strains carrying ELP1-6HA alleles; Western blot for Elp3-TAP and Elp1-6HA
[1] = target: T2, Elp2-myc3 (S. cerevisiae); experiment: co-IP; Elp2-myc immunoprecipitated from extracts of elp1Δ yeast strains carrying plasmid-borne ELP1-6HA alleles (antibody coupled to Dynabeads, B60 buffer); Western blot with anti-myc, anti-HA and anti-Hrr25
[2] = target: T3, Elp1-HA (S7 Fig) (S. cerevisiae); experiment: co-IP; Elp1-HA immunoprecipitated from extracts of HRR25 and hrr25-2 strains; Western blot with anti-HA, anti-myc and anti-Hrr25; untagged ELP1 as control

Binder | binding (Elp3-TAP (S. cerevisiae)) | binding [1] | binding [2]
B1 | binds | binds | 
B2 |  | binds | 
B3 |  |  | binds
B4 | binds | binds | 
B5 | binds | binds | 
B6 | binds | binds | 
B7 |  | binds | 
B8 | binds |  | 
B9 |  | binds | 
